Laboratory results reported in PMC10135883, “Structural Basis of the Interaction between Human Axin2 and SIAH1 in the Wnt/β-Catenin Signaling Pathway” (Biomolecules, 2023).
Results are given in words; binding and its absence hold for the method and conditions named.

Target: GST-Axin2-GBDΔ (Axin2-GBD with deletion of 361EMTPVEPA368) (human) (UniProt Q9Y2T1)
Experiment: BLI; Octet Red96; GST-Axin2-GBD or its deletion loaded onto GST biosensors, quenched with GST; dipped into SIAH1-SBD at 0.03-30 μM; free-GST biosensors as controls; both purified

B1: SIAH1-SBD (substrate-binding domain of E3 ubiquitin-protein ligase SIAH1, residues 89-282) (domain or fragment, UniProt Q8IUQ4-1 89-282)
chain: KVANSVLFPCKYASSGCEITLPHTEKADHEELCEFRPYSCPCPGASCKWQGSLDAVMPHLMHQHKSITTLQGEDIVFLATDINLPGAVDWVMMQSCFGFHFMLVLEKQEKYDGHQQFFAIVQLIGTRKQAENFAYRLELNGHRRRLTWEATPRSIHEGIATAIMNSDCLVFDTSIAQLFAENGNLGINVTISMC
- binding: no binding (tested: 30 μM)
